Data on six molecules can be found in PMC6072441.

Sequences of proteins named here, by UniProt entry; tags and fusion partners are left off.
UniProt O09106: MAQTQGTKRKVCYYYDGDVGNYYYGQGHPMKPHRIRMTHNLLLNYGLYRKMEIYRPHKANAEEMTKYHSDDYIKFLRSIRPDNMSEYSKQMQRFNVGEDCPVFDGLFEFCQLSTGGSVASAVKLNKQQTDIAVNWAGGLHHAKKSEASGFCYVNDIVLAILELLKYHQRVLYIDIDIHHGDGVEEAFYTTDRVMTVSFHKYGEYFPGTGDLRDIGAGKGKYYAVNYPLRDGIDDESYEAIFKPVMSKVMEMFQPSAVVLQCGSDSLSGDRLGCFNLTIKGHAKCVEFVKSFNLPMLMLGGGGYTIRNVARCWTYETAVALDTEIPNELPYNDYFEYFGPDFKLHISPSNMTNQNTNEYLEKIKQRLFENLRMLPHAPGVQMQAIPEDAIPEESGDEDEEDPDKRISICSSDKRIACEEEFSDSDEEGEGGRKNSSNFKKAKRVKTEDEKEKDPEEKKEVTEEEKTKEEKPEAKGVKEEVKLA

Results are given in words; binding and its absence hold for the method and conditions named. In cells and extracts the contact can be indirect. Here binding means that the protein was enriched with, or labelled near, the bait; the list need not be complete. For some assays here: A no says only that the protein was not detected with the bait. Tags and fused reporters may be left off the sequences shown.

Test [1] addresses T1, Fam60a-Venus fusion protein (mouse) (UniProt Q8C8M1).
T1 sequence: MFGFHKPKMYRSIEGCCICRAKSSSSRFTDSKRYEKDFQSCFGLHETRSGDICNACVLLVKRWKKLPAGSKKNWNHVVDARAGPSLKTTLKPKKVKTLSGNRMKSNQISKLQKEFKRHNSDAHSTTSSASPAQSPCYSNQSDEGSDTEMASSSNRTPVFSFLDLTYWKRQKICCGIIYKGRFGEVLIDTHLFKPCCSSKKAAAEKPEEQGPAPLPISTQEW
The test can be described thus: affinity purification with mass spectrometry; nuclear extracts of E10.5 Fam60a::Venus embryos prepared under three conditions (RIPA buffer, buffer C with 400 mM NaCl, nondenaturing lysis buffer with Benzonase); bead-coupled antibodies to GFP, 3 hr at 4°C; control: beads previously exposed to recombinant GFP; SDS-PAGE, silver staining, LC-MS/MS.

Test [2] deals with T1, Fam60a-Venus fusion protein (mouse). Described as above. This is another data set of the same source.
Test [3] shares this target. The test can be described thus: condition: only nuclear extracts prepared with RIPA buffer; affinity purification with mass spectrometry; as a1, but only the nuclear extracts prepared with RIPA buffer (the most stringent of the three conditions).

In the case of “Hdac1 (from UniProt O09106 1-482) (enzyme)”, in test [1], the binding entry was “binds”.

B1: Sin3a (protein, UniProt Q60520 1-1274)
chain: MKRRLDDQESPVYAAQQRRIPGSTEAFSHQHRVLAPAPPVYEAVSETMQSATGIQYSVAPNYQVSAVPQSSGSHGPAIAAVHSSHHHPTAVQPHGGQVVQSHAHPAPPVAPVQGQQQFQRLKVEDALSYLDQVKLQFGSQPQVYNDFLDIMKEFKSQSIDTPGVISRVSQLFKGHPDLIMGFNTFLPPGYKIEVQTNDMVNVTTPGQVHQIPTHGIQPQPQPPPQHPSQPSSQSAPTPAQPAPQPTAAKVSKPSQLQAHTPASQQTPPLPPYASPRSPPVQPHTPVTISLGTAPSLQNNQPVEFNHAINYVNKIKNRFQGQPDIYKAFLEILHTYQKEQRNAKEAGGNYTPALTEQEVYAQVARLFKNQEDLLSEFGQFLPDANSSVLLSKTTAEKVDSVRNDHGGTVKKPQLNNKPQRPSQNGCQIRRHSGTGATPPVKKKPKLMSLKESSMADASKHGVGTESLFFDKVRKALRSAEAYENFLRCLVIFNQEVISRAELVQLVSPFLGKFPELFNWFKNFLGYKESVHLESFPKERATEGIAMEIDYASCKRLGSSYRALPKSYQQPKCTGRTPLCKEVLNDTWVSFPSWSEDSTFVSSKKTQYEEHIYRCEDERFELDVVLETNLATIRVLEAIQKKLSRLSAEEQAKFRLDNTLGGTSEVIHRKALQRIYADKAADIIDGLRKNPSIAVPIVLKRLKMKEEEWREAQRGFNKVWREQNEKYYLKSLDHQGINFKQNDTKVLRSKSLLNEIESIYDERQEQATEENAGVPVGPHLSLAYEDKQILEDAAALIIHHVKRQTGIQKEDKYKIKQIMHHFIPDLLFAQRGDLSDVEEEEEEEMDVDEATGAPKKHNGVGGSPPKSKLLFSNTAAQKLRGMDEVYNLFYVNNNWYIFMRLHQILCLRLLRICSQAERQIEEENREREWEREVLGIKRDKSDSPAIQLRLKEPMDVDVEDYYPAFLDMVRSLLDGNIDSSQYEDSLREMFTIHAYIAFTMDKLIQSIVRQLQHIVSDEVCVQVTDLYLAENNNGATGGQLNSQTSRSLLESAYQRKAEQLMSDENCFKLMFIQSQGQVQLTVELLDTEEENSDDPVEAERWSDYVERYMSSDTTSPELREHLAQKPVFLPRNLRRIRKCQRGREQQEKEGKEGNSKKTMENVESLDKLECRFKLNSYKMVYVIKSEDYMYRRTALLRAHQSHERVSKRLHQRFQAWVDKWTKEHVPREMAAETSKWLMGEGLEGLVPCTTTCDTETLHFVSINKYRVKYGTVFKAP
B1: in test [2], the binding entry is “binds”.

B2: Sap130 (protein, UniProt Q8BIH0 1-1057)
chain: MSSQQFPRLGTPSPGLSQPPSQIASSGSAGLINQVATVNDEAGRDADVGTREHVGPSSSLPPREEKQEPVVVRPYPQVQMLPAHHAVASATPVAVTAPPAHLTPAVPLSFSEGLMKPPPKPTMPSRPIAPAPPSTMSLPPKVPGQVTVTMESSIPQASAIPVATISGQQGHPSNLHHIMTTNVQMSIIRSNAPGPPLHIGASHLPRGAAAAAVMSSSKVTTVLRPTSQLPNAATAQPAVQHLIHQPIQSRPPVTTSSTIPPAVVATVSATRAQSPVITTTAAHAADSTLSRPTLSIQHPPSAAISIQRPAQSRDVTTRITLPSHPALGTPKQQLHTMAQKTIFSTGTPVAAATVAPILATNTLPSTTTAGSVSHTQAPTSTIVTMTMPSHSSHATAVTTSNIPVAKVVPQQITHTSPRIQPDYPPERSSLIPISGHRASPNPVAMETRNDNRPSVPVQFQYFLPTYPPSAYPLAAHTYTPITSSVSTIRQYPVSAQAPNSTITAQTGVGVASTVHLNPMQLMTVDASHARHIQGIQPAPISTQGIQPAPIGTSGIQPAPIGTPGIHSAAPINTQGLQPAAMANQQPQPEGKTSAVVLADGATIVANPISNPFSAAPAATTVVQTHSQSASTNTPAQGSSPRPSILRKKPATDGMAVRKTLLPPQPPDVATPRVESSMRSASGSPRPAGAKPKSEVHVSIATPVTVSLETISNQNAEQPTVAVPPTAQQPPPTIPSMIAAASPPSQPAIALSTIPGAVPVTPPITTIAATPTLSAPVGGTPSTVLGPPVPEIKVKEEAEPVDITRPVSTVPPLATNTVSPSLALLASNLSMPPSDLPPGASPRKKPRKQQHVISTEEGDMMETNSTDDEKSAAKSLLVKAEKRKSPPKEYIDEEGVRYVPVRPRPPITLLRHYRNPWKAAYHHFQRYSDVRVKEEKKAMLQEIANQKGVSCRAQGWKVHLCAAQLLQLTNLEHDVYERLTNLQEGIIPKKKAATDDDLHRINELIQGNMQRCKLVMDQISEARDSMLKVLDHKDRVLKLLNKNGTVKKVSKLKRKEKV
B2: the binding entry in test [2] is “binds”.

B3: Suds3 (protein, UniProt Q8BR65 1-328)
chain: MSAAGLLAPAPAPAAAPAAPEYYPEDEEELESAEDDERSCRGRESDEDTEDASETDLAKHDEEDYVEMKEQMYQDKLASLKRQLQQLQEGTLQEYQKRMKKLDQQYRERIRNAELFLQLETEQVERNYIKEKKAAVKEFEDKKVELKENLIAELEEKKKMIENEKLTMELTGDSMEVKPIMTRKLRRRPNDPVPIPDKRRKPAPAQLNYLLTDEQIMEDLRTLNKLKSPKRPASPSSPEHLPATPAESPAQRFEARIEDGKLYYDKRWYHKSQAIYLESKDNQKLSCVISSVGANEIWVRKTSDSTKMRIYVGQLQRGLFVIRRRSAA
Consider B3, for which the binding entry in test [2] is given as “binds”.

B4: Arid4b (protein, UniProt A2CG63 1-1314)
chain: MKALDEPPYLTVGTDVSAKYRGAFCEAKIKTAKRLVKVKVTFRHDSSTVEVQDDHIKGPLKVGAIVEVKNLDGAYQEAVINKLTDASWYTVVFDDGDEKTLRRSSLCLKGERHFAESETLDQLPLTNPEHFGTPVIGKKTNRGRRSNHIPEEESSSSSSDDDEEERKQTDELLGKVVCVDYVSLEKKKAMWFPALVVCPDCSDEIAVKKDNILVRSFKDGKFTSVPRKDVHEITSDTVPKPDAVLKQAFDQALEFHKSRAIPANWKTELKEDSSSSEAEEEEEEEDDEKEKEDNSSEEEEEIEPFPEERENFLQQLYKFMEDRGTPINKRPVLGYRNLNLFKLFRLVHKLGGFDNIESGAVWKQVYQDLGIPVLNSAAGYNVKCAYKKYLYGFEEYCRSANIDFQMALPEKVLNKPCKDCENKEVKVKEESETEIKEVNVEDSKNVMPKEETPAEDESERKENIKPSLGSKKSLLECIPAQSDEEKEAHITKLEENENLEDKDGGRARTEEAFSTEVDGEEEQARSGDETNKEEDEDDEEIEEEEEEDEEEDEDEDDDDNNEEEEFECYPPGMKVQVRYGRGKNQKMYEASIKDSDVEGGEALYLVHYCGWNVRYDEWIKADKIVRPADKNVPKIKHRKKIKNKLDKEKDRDEKYSPKNCKLRRLSKSPFQSNPSPEMVSKLDLADAKNSDTAHIKSIEITSILNGLQASESSAEDSEQEDERCTQDVDNIGKDESKVEHSTHSRNELISKEEQSSPSLLEENKVHTDLVIAKTVSKSPERLRKDMEAISEDTDFEEEDEITKKRKDVKKDTTDKALKPQTKRGKRRYCSADECLQTGSPGKKEDRTKSKEPLCTENSSNSSSDEDEEEKSKAKMTPTKKYNGLEEKRKSLRTTSFYSGFSEVAEKRIKLLNNSDERLQNNRAKDRKDVWSSIQGQWPKKTLKELFSDSDTEAAASPPHPAPDEGAVEESLQTVAEEESCSPIMELEKPLPASVDNKPIEEKPLEVSDRKTEFPSSGSNSVLNTPPTTPESPSSVTITEASQQQSSVTVSVPLPPNQEEVRSIKSETDSTIEVDSVVGELQDLQSEGNSSPAGFDASVSSSSSNQPEPDNPEKACTGQKRVKDTQGVGSSSKKQKRSHKATVVNNKKKGKGTNSSDSEELSAGESVTKTQTIKSVPTGMKTHNSKSPARVQSPGKGGRNGDKDPDLKEPSNRLPKVYKWSFQTSDLENMTSAERISILQEKLQEIRKHYLSLKSEVASIDRRRKRLKKKERESAATSSSSSSPSSSSITAAVMLTLAEPSMSSASQNGMSVECR
B4: the results for the binding entry in test [2] and in test [3] were “binds weakly” and “no binding”, respectively.

B5: Arid4a (protein, UniProt F8VPQ2 1-1261)
chain: MKAADEPAYLTVGTDVSAKYRGAFCEAKIKTVKRLVKVKVLLKQDNTTQLVQDDQVKGPLRVGAIVETRTSDGSIQEAIISKLTDASWYTVVFDDGDERTLRRTSLCLKGERHFAESETLDQLPLTNPEHFGTPVIAKKTNRGRRSSLPITEDEKEEESSEEEDEDKRRLNDELLGKVVSVASTAESTGWYPALVVSPSCNDDVTVKKDQCLVRSFIDSKFYSIARKDIKELDILTLPESELCARPGLRRASVFLKGRIVPDNWKMDISEILESSSSDDEECPAEEHEEEKEKEAKKEEEELPEEELDPEERDNFLQQLYKFMEDRGTPINKPPVLGYKDLNLFKLFRLVYHQGGCGNIDSGAVWKQIYMDLGIPILNSAASYNVKTAYRKYLYGFEEYCRSANIQFRTIHHHEPKVKEEKKDFEDSMDEALKEAPEMPLLDVKSEPEENTDSNSESDREDTELKSPRGRRKIVRDANCIKKEIEEEKIEDKFLRDDLENKDAGDDDDDGDPAAKREHELLFGRKSTPKNKEKKIKKPEDSERDSDEEEEKSQEREETESRCDSEGEDEEDDTEPCLTGTKVKVKYGRGKTQKIYEASIKSTEMDDGEILYLVHYYGWNVRYDEWVKADRIIWPLDKGGPKKKQKKKVKNKEDSEKDEKRDEERQKSKRGRPPLKSTFSPNMPYSLSKTSNSEGKSDSCSSDSEADDQLEKSSGGEDLSPDVKEELEKNENAHDDKLDEENPKIVHISKENDRTQAQPSDTLTVEAGDSDQIVHIFGDKVDQVEEFKKQVEKSPKGKGRRSKTKDLSLELIKISPFGQEEAGSEAHGDVHSLEFSSLECKNFSSTEDDIDPYEKEKKLKRKILGQQSPEKKLRLDNGMEMTTGVSQERSDDGAGAEGMKGAHVEQHFETEGEGMPSLTAEPDQGLQELTSEKSDSPAEEEPVHTPLKEEEDAMPLIGPETLVCHEVDLDDLDEKDKTSIEDVVVEGSESNSLASVPPALPPVAQHNFSVASPLTLSQDESRSIKSESDITIEVDSIAEESQEGLCERESANGFEASVASGACSIIAHERESREKGQKRPSDGNSGLIAKKQKRTPKRTSAAAKTEKNGAGQSSDSEDLPAMDSSSNCTPVKRLTLPKSQKLPRSPARTSPHIKDAEKEKHREKHPNSSPRTYKWSFQLNELDNMNSTERISFLQEKLQEIRKYYMSLKSEVATIDRRRKRLKKKDREVSHAGASMSSASSDTGMSPSSSSPPQNVLAVECR
Consider B5, for which the binding entry is “binds weakly” in test [2] and “no binding” in test [3].
